Results are given in words; binding and its absence hold for the method and conditions named. Binding seen in cells or lysates may run through a third protein. Some binding calls cover weakened binding; strength is not graded here.
Biological target: DIC1 with tandem GFP and 3xFLAG tags at the C terminus, knock-in (dynein-GFP mouse) (mouse) (UniProt O88485)
Experiment: co-IP; endogenous complex from high-density fractions 23-24 of the P3 sucrose gradient of dynein-GFP mouse brain; IP with anti-FLAG against the 3xFLAG tag on DIC1

By UniProt entry, the sequences of proteins in these tests, tags left out.
UniProt O88485: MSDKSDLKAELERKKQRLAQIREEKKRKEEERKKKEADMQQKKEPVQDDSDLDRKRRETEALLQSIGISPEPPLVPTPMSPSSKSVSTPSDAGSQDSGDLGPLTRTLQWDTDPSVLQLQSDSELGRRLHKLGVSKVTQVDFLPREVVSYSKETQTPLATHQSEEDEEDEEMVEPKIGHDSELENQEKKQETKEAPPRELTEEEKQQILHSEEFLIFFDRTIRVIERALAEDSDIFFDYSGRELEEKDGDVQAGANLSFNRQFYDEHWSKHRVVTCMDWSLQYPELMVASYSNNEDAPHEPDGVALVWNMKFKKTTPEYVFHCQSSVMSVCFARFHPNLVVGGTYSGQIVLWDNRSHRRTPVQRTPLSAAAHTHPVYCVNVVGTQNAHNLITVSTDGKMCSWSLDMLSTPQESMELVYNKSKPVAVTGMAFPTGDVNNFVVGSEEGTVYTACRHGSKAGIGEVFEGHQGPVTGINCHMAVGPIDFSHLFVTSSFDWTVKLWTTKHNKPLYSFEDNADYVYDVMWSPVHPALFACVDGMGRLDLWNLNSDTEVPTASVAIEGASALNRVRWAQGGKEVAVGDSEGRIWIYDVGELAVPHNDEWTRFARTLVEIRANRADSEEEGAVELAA
UniProt Q9JHU4: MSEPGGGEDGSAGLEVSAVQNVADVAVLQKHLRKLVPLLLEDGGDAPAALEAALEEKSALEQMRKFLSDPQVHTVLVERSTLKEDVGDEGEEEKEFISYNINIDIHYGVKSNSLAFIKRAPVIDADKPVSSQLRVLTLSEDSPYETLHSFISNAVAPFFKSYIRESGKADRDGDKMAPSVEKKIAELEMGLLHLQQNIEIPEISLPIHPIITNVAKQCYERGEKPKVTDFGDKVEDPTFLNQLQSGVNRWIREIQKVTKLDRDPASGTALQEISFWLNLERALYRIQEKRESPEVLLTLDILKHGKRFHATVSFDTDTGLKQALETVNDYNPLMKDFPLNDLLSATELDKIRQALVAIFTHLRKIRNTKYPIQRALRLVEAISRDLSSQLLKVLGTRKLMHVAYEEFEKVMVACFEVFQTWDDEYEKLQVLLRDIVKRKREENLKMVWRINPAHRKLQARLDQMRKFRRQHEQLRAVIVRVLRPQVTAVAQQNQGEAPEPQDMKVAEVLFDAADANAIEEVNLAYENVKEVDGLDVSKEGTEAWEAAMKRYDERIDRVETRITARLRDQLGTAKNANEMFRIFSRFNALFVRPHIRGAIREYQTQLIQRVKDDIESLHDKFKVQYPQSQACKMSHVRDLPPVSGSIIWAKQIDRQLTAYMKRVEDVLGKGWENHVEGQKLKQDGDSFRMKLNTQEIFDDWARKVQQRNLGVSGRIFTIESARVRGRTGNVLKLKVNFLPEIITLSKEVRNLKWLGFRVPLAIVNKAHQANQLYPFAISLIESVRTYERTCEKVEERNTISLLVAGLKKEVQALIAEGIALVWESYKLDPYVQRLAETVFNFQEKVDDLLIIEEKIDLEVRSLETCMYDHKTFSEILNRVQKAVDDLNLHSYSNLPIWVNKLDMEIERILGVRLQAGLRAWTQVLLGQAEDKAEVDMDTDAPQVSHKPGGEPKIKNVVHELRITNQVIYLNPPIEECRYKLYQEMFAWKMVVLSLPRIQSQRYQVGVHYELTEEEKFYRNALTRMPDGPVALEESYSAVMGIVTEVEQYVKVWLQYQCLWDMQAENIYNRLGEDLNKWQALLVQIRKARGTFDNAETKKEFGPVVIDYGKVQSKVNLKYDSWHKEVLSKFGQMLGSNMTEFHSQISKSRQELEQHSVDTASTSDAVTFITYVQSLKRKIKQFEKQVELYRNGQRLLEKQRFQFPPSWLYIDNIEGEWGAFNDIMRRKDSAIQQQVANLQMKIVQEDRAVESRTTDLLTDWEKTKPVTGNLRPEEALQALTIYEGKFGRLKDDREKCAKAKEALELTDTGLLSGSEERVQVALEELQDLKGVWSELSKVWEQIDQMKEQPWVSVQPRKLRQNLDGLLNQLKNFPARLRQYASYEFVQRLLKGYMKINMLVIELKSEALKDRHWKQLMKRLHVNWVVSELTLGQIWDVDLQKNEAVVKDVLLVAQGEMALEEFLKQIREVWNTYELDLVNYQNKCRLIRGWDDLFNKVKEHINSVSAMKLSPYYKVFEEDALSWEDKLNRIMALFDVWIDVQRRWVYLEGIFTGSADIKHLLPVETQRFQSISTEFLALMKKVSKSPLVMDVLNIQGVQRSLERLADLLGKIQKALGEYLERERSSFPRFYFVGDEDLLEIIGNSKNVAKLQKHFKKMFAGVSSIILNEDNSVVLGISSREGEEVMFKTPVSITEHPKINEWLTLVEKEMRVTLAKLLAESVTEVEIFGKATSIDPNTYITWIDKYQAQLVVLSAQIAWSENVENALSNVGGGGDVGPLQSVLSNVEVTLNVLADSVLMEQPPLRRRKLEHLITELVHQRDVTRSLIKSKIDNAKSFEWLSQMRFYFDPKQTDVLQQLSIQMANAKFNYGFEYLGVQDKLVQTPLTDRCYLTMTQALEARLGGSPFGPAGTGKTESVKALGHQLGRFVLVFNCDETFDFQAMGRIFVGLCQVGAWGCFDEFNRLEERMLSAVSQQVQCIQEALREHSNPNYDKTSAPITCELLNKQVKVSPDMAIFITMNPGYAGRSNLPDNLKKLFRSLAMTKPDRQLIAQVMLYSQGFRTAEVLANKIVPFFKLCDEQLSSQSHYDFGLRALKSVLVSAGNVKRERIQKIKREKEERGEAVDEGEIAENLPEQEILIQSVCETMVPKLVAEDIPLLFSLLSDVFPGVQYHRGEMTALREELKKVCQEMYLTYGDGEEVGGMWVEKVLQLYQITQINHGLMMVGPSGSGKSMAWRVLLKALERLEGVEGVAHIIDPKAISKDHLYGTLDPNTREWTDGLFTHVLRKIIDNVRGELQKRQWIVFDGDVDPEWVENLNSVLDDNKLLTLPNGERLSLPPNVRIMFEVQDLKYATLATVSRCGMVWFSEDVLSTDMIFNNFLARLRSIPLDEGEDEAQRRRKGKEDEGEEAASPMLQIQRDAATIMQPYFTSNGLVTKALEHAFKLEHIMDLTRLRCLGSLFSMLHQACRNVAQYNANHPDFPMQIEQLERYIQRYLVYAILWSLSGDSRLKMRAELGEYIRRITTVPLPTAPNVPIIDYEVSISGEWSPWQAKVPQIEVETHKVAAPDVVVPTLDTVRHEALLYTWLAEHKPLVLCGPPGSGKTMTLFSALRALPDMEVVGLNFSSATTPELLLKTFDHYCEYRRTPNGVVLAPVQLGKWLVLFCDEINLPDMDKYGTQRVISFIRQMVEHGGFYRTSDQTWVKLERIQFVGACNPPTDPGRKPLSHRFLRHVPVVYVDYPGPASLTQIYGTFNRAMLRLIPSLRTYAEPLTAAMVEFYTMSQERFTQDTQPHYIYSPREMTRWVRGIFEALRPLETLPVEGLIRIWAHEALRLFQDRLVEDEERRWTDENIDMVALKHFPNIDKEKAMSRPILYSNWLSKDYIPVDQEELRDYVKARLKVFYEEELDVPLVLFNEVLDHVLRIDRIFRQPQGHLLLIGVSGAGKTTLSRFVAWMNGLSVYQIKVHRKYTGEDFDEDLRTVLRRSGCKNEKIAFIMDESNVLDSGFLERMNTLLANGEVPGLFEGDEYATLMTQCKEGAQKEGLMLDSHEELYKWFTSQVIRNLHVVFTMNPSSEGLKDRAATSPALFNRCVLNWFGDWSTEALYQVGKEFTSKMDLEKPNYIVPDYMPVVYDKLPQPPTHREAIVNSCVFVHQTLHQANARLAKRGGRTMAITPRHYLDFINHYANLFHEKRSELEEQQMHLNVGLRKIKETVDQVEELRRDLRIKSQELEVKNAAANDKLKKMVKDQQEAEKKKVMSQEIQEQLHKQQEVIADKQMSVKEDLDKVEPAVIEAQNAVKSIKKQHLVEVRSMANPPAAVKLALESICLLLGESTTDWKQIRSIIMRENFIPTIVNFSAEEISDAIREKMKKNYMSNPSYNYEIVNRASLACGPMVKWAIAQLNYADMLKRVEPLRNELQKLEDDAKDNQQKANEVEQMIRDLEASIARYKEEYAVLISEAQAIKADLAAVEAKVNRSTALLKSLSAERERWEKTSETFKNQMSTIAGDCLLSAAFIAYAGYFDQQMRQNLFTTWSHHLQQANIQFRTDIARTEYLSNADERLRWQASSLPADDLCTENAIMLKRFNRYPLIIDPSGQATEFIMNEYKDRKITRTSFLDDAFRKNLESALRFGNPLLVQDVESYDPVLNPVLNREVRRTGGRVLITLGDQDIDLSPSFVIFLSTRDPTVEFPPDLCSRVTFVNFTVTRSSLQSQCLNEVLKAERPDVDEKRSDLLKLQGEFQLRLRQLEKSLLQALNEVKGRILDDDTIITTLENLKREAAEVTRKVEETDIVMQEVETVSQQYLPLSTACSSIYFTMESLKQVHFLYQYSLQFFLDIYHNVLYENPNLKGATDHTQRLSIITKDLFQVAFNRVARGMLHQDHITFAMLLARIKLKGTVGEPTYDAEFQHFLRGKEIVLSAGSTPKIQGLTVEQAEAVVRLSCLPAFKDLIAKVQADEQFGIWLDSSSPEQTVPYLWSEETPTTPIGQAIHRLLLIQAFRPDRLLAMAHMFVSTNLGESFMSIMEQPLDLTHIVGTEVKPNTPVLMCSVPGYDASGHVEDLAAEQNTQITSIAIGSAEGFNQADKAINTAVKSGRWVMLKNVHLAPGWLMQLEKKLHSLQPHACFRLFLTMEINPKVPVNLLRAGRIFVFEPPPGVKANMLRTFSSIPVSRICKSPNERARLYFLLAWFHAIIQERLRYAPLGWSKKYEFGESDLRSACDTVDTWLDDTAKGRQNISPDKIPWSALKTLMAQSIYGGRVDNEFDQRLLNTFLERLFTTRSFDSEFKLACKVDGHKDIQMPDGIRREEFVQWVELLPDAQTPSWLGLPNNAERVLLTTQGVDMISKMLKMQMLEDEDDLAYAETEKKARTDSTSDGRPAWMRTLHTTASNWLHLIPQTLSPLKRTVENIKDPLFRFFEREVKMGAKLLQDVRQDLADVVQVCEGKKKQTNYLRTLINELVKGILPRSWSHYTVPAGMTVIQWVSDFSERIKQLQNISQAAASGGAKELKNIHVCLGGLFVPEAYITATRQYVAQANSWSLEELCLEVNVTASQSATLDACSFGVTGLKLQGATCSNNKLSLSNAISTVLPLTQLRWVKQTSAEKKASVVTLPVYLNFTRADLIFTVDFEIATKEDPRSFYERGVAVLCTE

binding: binds
Substance: dynein heavy chain (DHC) (from UniProt Q9JHU4 1-4644)

Source: publication PMC4893161, “The Dynamic Localization of Cytoplasmic Dynein in Neurons Is Driven by Kinesin-1” (Neuron, 2016)
